Test results from PubChem BioAssay AID2685 (National Center for Advancing Translational Sciences (NCATS), 2010).
About 2,100 (0.66%) of roughly 320,000 compounds were called active. The shares of active, inactive and inconclusive entries below differ from those in the screen. The call rests on the fitted dose curve; in most records, active means well fitted inhibition curve with a large enough effect in the signal ratio, with a control signal flat (not every such curve was filed as active); inconclusive means small, poorly fitted or top-dose-only effect, or effect the other way, or a change in a side signal; inactive means flat fitted curve, though single readings scatter; the % refers to the signal ratio. A potency beside an inconclusive call is a rough fit, not a confirmed value.

test: qHTS Assay for Lipid Storage Modulators in Drosophila S3 Cells; details: BODIPY lipid droplet fluorescence, 18-24 h, cells fed with added oleic acid; lipid storage change, negative = inhibition: at 46.1 µM (top of the series) unless noted
Method in brief: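 Drosophila S3 cells got compounds at several concentrations plus oleic acid (400 uM solution). Laser-scanning cytometry with 488 nm excitation read lipid droplets at 500-530 nm and cells at 575-640 nm. Percent activity was relative to 20 uM Triacsin C.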
On the % scale 0 is the no-effect control and ±100 the full control effect; potency means the concentration at half of the fitted maximal effect.

Lipid storage change, negative = inhibition, inactive:
CN(C)CCCNCCCNC(=O)/C(=N\O)c1ccccn1, Cc1cc2n(n1)SC(Nc1cc(Cl)ccc1Cl)N2 (configuration not stated)

Lipid storage change, negative = inhibition, inconclusive:
CCN(CC(=O)Nc1ccc(OC)cc1)C(=O)c1oc2c(Cl)cccc2c1C 6.06%, Cc1cccc(C)c1NC(=O)CNC(=O)C12CC3CC(CC(O)(C3)C1)C2 41.8%, CC1(c2ccccc2)NC(=O)N(CC(=O)N(CC(=O)Nc2ccccc2C(F)(F)F)Cc2ccco2)C1=O (configuration not stated) -24%, O=C(CCC(=O)Nc1ccccc1Cl)NNC(=O)Nc1cccc([N+](=O)[O-])c1 20.5%, CCOC(=O)N1CCN(C(=O)c2ccc3nc(N4CCC(C)CC4)sc3c2)CC1 -30.3%, COc1cc(-c2nc(C(F)(F)F)c(OC)o2)cc(OC)c1OC -5.83%, CCC(=O)NCc1ccc2[nH]c(C)cc2c1 9.13%, COc1ccc(C(=O)CSc2nnc(-c3ccco3)n2C)cc1 -4.56%, NC(N)=NC1=NC(=O)/C(=C/c2ccccc2-n2cccn2)S1 12.5%, O=C(CSc1nnnn1C1CC2CCC1C2)Nc1ccnc2ccccc12 (configuration not stated) -86.7%, COc1ccccc1NC(=O)C1Cc2ccccc2CN1C(=O)c1ccco1 (configuration not stated) 106%, CCN1CCN(c2ccc(N3CCN(C(=O)c4ccc(Br)o4)CC3)nn2)CC1 18.4%, O=C1NC2(CCCC2)C(=O)N1CC(=O)N(Cc1ccccc1)c1ccccc1, O=C(NCc1ccc(F)cc1)N1CCN(S(=O)(=O)c2ccccc2F)CC1 -155%, O=C(Oc1ccc2ccc(=O)oc2c1)N1CCOCC1 -4.86%, Brc1ccc(CNCCCSc2ncccn2)cc1 -56.1%, CN1C(C(=O)NCC2CC2)CC2Cn3c(nc4cc(Cl)c(Cl)cc43)C21 (configuration not stated) 10%, O=C(O)/C=C\C(=O)Nc1cc(O)ccc1[N+](=O)[O-] -10.8%, N#CC1(NC(=O)CSc2nncn2-c2ccccc2F)CCCC1 3.85%, O=C(CN1C2=NCCCN2c2ccccc21)c1ccc(Cl)cc1Cl 16.9%, O=S(=O)(c1ccc(Cl)c(NC(=S)N/N=C/c2ccc(O)cc2)c1)N1CCOCC1 -50.8%, O=C(CSc1nnc(-c2cccs2)o1)N1CCCCC1 -53.8%, Cc1ccccc1NS(=O)(=O)c1cccc(-c2nnc(-c3ccccc3)o2)c1 52.5%, CCOC(=O)c1c(-c2ccc(F)cc2)csc1NC(=O)CN1C(=O)NC2(CCCCC2C)C1=O (configuration not stated) -29.7%, CS(=O)(=O)c1ccc(-c2nnn(CC(N)=O)n2)cc1 78.3%, COC(C(=O)NC(C(C)C)C(C)C)c1ccccc1 (configuration not stated) -16.8%, O=C(CCCC(=O)N1CCN(c2ccc([N+](=O)[O-])cc2)CC1)c1ccccc1 -7.08%, CCC(=O)NNC(=O)c1c(O)c2ccccc2[nH]c1=O 26.6%, COc1ccc(CC2C(=O)OC(C)(C)OC2=O)cc1 1.7%, O=C(O)c1cc(S(=O)(=O)N2CCCCC2)ccc1N1CCCCC1 57.3%, FC(F)(F)c1cnc(Sc2ncn[nH]2)c(Cl)c1 -14.1%, CC(CC(=O)NC(C)c1ccc2c(c1)OCCO2)c1ccccc1 (configuration not stated) -21.8%, O=S(=O)(Nc1ccc(-c2ccc3nncn3n2)cc1)c1ccccc1Cl, COc1cc(COCC(O)CN2CCN(Cc3ccccc3)CC2)cc(OC)c1OC (configuration not stated) 2.04%, Cc1cc(NC(=O)COn2nnc3ccc(S(C)(=O)=O)cc32)ccc1Br 18.7%, Cc1ccc(NC(=O)c2ccc(Cl)c(S(=O)(=O)N3CCCC3)c2)nc1 -30.4% [at 0.0737 µM], NS(=O)(=O)c1cccc(NC(=O)Cn2nc(C(=O)O)c3ccccc3c2=O)c1 141%, C=CCNc1nnc(C)c2ccccc12 14.7%, Cc1cccc(N2CCN(S(=O)(=O)c3ccc4c(c3)CCN4C(=O)CCC(=O)O)CC2)c1C 21.3%, COc1ccccc1CNCC(=O)N1CC(=O)Nc2ccccc21 1.59%, CCOc1cc(C2NC(=O)c3ccccc3O2)ccc1OC(C)C (configuration not stated) 21.2%, CCCCCN1CC(O)=C(c2ccccc2)C1=N -4.37%, Cc1n[nH]c(=O)c2c1nnn2Cc1ccccc1Cl 21.4%, Cc1c(C#N)c2ccccc2n1CC(=O)NCC1CCCO1 (configuration not stated) 22.9%, COc1cc2c(cc1OC)C(COc1ccc([N+](=O)[O-])cc1)NCC2 (configuration not stated) 16.3%, O=C1NCCN(Cc2ccc(-c3ccccc3)cc2)C1CC(=O)N1CCN(CCO)CC1 (configuration not stated) 24.1%, CC1CC(C)CN(CC(=O)NCCc2ccc(S(N)(=O)=O)cc2)C1 (configuration not stated) -1.95%, CC(C)n1cc(CN2CCC(n3nccc3NC(=O)Cc3ccccc3)CC2)cn1 9.17%, CN(C)C(=O)c1ccc(NC(=O)CSc2nnc(-c3cccs3)n2N)cc1 -40.2%

Potency, inconclusive:
CNc1snc(C)c1C(=O)OC(C)C(=O)NCc1ccccc1 (configuration not stated) 29.1 µM [falling, single point], O=C(NC1CCCCC1)c1cccc(N2C(=O)CCC2=O)c1 0.164 µM [rising, single point], O=C(Nc1ccccc1C(=O)OCn1nnc2ccccc2c1=O)c1ccco1 1.03 µM [activator, partial curve, poor fit], CCc1cccc(NC(=O)C2CCCN2S(=O)(=O)c2ccc3c(c2)n(C)c(=O)c(=O)n3C)c1 (configuration not stated) 0.0046 µM [falling, full curve, poor fit], Cc1c(C(=O)O)sc2nc(-c3cccs3)cc(C(F)(F)F)c12 29.1 µM [activator, single point], O=C(NCCOC(=O)c1ccc(F)cc1)c1ccc(F)cc1 29.1 µM [activator, single point], O=C(c1cc2c(s1)-c1ccccc1OC2)N1CCc2ccccc2C1 11.6 µM [activator, partial curve], CCOC(=O)C1C(=O)C=C(c2ccc(Br)cc2)CC1c1ccco1 (configuration not stated) 1.64 µM [activator, full curve, poor fit], Cc1cc(NC(=O)CCCN2C(=O)/C(=C/c3cccs3)SC2=S)no1 6.51 µM [falling, partial curve], CCc1nnc(NC(=O)C2=NN(C3CCS(=O)(=O)C3)C(=O)CC2)s1 (configuration not stated) 1.84 µM [falling, partial curve], O=C(NCc1ccc(F)cc1)C1CC(=O)N(C2CCCCC2)C1 (configuration not stated) 29.1 µM [falling, single point], Cn1c(=O)c2c(ncn2CC(O)CNc2ccc(Br)cc2)n(C)c1=O (configuration not stated) 23.1 µM [activator, partial curve], CCN(CC)CCN1CCn2c3c(c4cc(C)ccc42)CCCC31 (configuration not stated) 29.1 µM [activator, single point], CCn1cc(C(=O)NCCCN2CCC(C)CC2)c(=O)c2cc(S(=O)(=O)N(C)C3CCCCC3)ccc21 6.51 µM [activator, partial curve, poor fit], Cn1c(=O)n(C)c2cc(S(=O)(=O)N3CCCCC3)ccc21 18.4 µM [activator, partial curve], O=C(CSc1nnc(-c2cccnc2)n1Cc1ccco1)c1ccc(Cl)c(Cl)c1 2.06 µM [activator, partial curve], COc1cccc(OCC(=O)O/N=C(\N)c2ccc(OC)c(OC)c2)c1 25.9 µM [activator, single point], O=C(CN1CCCCCC1)Nc1ccc(S(=O)(=O)N2CCCCC2)cc1 9.2 µM [activator, partial curve], COCCN1C(=O)/C(=C/c2ccc(N3CCCC3)cc2)SC1=S 4.11 µM [falling, single point], O=C(Nc1cccc2ncccc12)c1ccccc1[N+](=O)[O-] 3.26 µM [falling, full curve], O=C(O)C1CCCCC1C(=O)Nc1ccccc1C(=O)N1CCN(c2ccc(F)cc2)CC1 (configuration not stated) 29.1 µM [activator, single point], CCOC(=O)Cc1csc(SCC(=O)N(CC(C)C)c2c(N)n(Cc3ccccc3)c(=O)[nH]c2=O)n1 7.31 µM [activator, partial curve], COC(=O)c1sccc1-c1ccc(/C=N/OCc2c(Cl)cccc2Cl)o1 1.64 µM [rising, partial curve, poor fit], Cc1ccc(CCN2CC(C(=O)NCCN3CCOCC3)CC2=O)cc1 (configuration not stated) 29.1 µM [falling, single point], CCN1CCN(C(=O)c2ccc(Cl)c(S(=O)(=O)N(C)c3ccccc3)c2)CC1 23.1 µM [falling, single point], C=Cn1nc(C)c2ccccc2c1=O 2.91 µM [activator, single point]
